The list is a part of this screen's results and no random one: it is rich in T/C values a quarter to a half above the control, in often repeated tests (any T/C) and in doses without a T/C. Further doses and runs are listed elsewhere. T/C gives the treated animals as a percentage of the vehicle group. Some entries give survivors of the animals treated and no T/C: the source files T/C as zero there, which appears to mark a toxic dose or a test without result, not a measured value. Some doses without a T/C left all or most animals alive at the check, yet need not have been tolerated: the source hardly ever lists a survival T/C far under the control, and the zero likely stands for such cases as well. Survivors were counted at the toxicity check, usually on the fifth day, unless a day is given; later deaths do not show. Schedules are NCI's codes, taken here to give the interval after Q, in days (D) or hours (H), and the number of doses after X. Some doses were run more than once; the results are listed from low to high. Additions like (4×) stand for listed records that agree. For survival time, the PubChem record calls one and a half times the control and up active, and a quarter to a half above the control has no call in these data; cut-offs in other NCI protocols can differ. Some T/C values carry the count of animals alive at the toxicity check (mostly the fifth day); where none is given, no animal had died by that day.
Tested on: BDF1 mice, B16 melanoma ip, median survival T/C
Assay: NCI In Vivo Anticancer Drug Screen. Data for tumor model B16 Melanoma (intraperitoneal) in B6D2F1 (BDF1) mice
Settings: T/C endpoint: median survival time, schedule: Q01DX009 (ip), higher T/C = longer survival
In short: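 Read-out: survival or tumor size, given as treated/control ratio. Controls received vehicle only; animals bore transplantable tumors.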

[1] = dose: 6.0 mg/kg/injection, vehicle: Klucel (hydroxypropylcellulose) (HPC)
[2] = dose: 25.0 mg/kg/injection, vehicle: Klucel (hydroxypropylcellulose) (HPC)
[3] = dose: 100.0 mg/kg/injection, vehicle: Klucel (hydroxypropylcellulose) (HPC)
[4] = dose: 100.0 mg/kg/injection, vehicle: saline with Tween-80
[5] = dose: 200.0 mg/kg/injection, vehicle: saline with Tween-80

Nc1ncn(C2OC(CO)C(O)C2O)c(=O)n1 (configuration not stated)
T/C (dose: 0.75 mg/kg/injection, vehicle: Klucel (hydroxypropylcellulose) (HPC)): 90 [5 of 6 alive], 100 (2×), 103 % of control [5 of 6 alive] | T/C (dose: 0.75 mg/kg/injection, vehicle: saline, evaluated on day 45): 105 and 128 % of control (2×) | T/C (dose: 0.75 mg/kg/injection, vehicle: saline, evaluated on day 60): 94, 97 (2×), 100, 100 [5 of 6 alive], 105, 107, 108, 109, 110 (3×), 111, 112, 114, 115 (2×), 117, 119 (2×), 122 % of control (3×) | T/C (dose: 1.5 mg/kg/injection, vehicle: Klucel (hydroxypropylcellulose) (HPC)): 96, 103 [4 of 6 alive], 106, 157 % of control | T/C (dose: 1.5 mg/kg/injection, vehicle: saline, evaluated on day 45): 102, 120, 136 % of control | T/C (dose: 1.5 mg/kg/injection, vehicle: saline, evaluated on day 60): 91, 94 [9 of 10 alive], 96, 100, 104, 105, 107, 109, 111, 112, 113, 114, 116 (2×), 119 (2×), 126 (2×), 127, 142, 144, 147, 153 % of control | T/C (dose: 3.0 mg/kg/injection, vehicle: Klucel (hydroxypropylcellulose) (HPC)): 93, 100, 106 [5 of 6 alive], 111 % of control | T/C (dose: 3.0 mg/kg/injection, vehicle: saline with Tween-80): 143 % of control | T/C (dose: 3.0 mg/kg/injection, vehicle: saline, evaluated on day 45): 86, 108, 144 % of control | T/C (dose: 3.0 mg/kg/injection, vehicle: saline, evaluated on day 60): 93, 94, 100 (2×), 102 (2×), 105, 113 (2×), 114, 119, 120, 124, 125, 126, 131, 142, 144, 147 (3×), 160 % of control | survivor count (dose: 3.0 mg/kg/injection, vehicle: saline): 6 of 6 | survivor count (dose: 4.0 mg/kg/injection, vehicle: suspension in saline): 10 of 10 | T/C [1]: 103 [5 of 6 alive] and 106 % of control | survivor count [1]: 6 of 6 | T/C (dose: 6.0 mg/kg/injection, vehicle: saline with Tween-80): 140 % of control | T/C (dose: 6.0 mg/kg/injection, vehicle: saline, evaluated on day 45): 121 % of control | T/C (dose: 6.0 mg/kg/injection, vehicle: saline, evaluated on day 60): 90, 100 (3×), 102 [5 of 6 alive], 105, 111, 115, 119, 127, 139, 180 % of control | survivor count (dose: 6.0 mg/kg/injection, vehicle: saline): 5 of 6 (2×), 10 of 10, 6 of 6 (2×) | survivor count (dose: 8.0 mg/kg/injection, vehicle: suspension in saline): 9 of 10

CCCC(=O)OCc1cc(=O)n(C)c2c3c4c(cc12)c(C)cc(=O)n4CO3
T/C (dose: 12.5 mg/kg/injection, vehicle: Klucel (hydroxypropylcellulose) (HPC)): 127 % of control | T/C [2]: 129 and 141 % of control | T/C (dose: 50.0 mg/kg/injection, vehicle: Klucel (hydroxypropylcellulose) (HPC)): 143 % of control | T/C [3]: 136 % of control | survivor count [3]: 10 of 10

Nc1nc(O)c(CC(=O)O)s1
survivor count (dose: 3.12 mg/kg/injection, vehicle: Klucel (hydroxypropylcellulose) (HPC)): 10 of 10 | survivor count (dose: 6.25 mg/kg/injection, vehicle: Klucel (hydroxypropylcellulose) (HPC)): 10 of 10 | survivor count [2]: 10 of 10 | survivor count [3]: 10 of 10

CCCCCCC/C=C/C(=O)OC1C(OC2C(OC(CCCCCCC)CC(=O)OC(CCCCCCC)CC(=O)O)OC(C)C(O)C2O)OC(C)C(O)C1O (configuration not stated)
survivor count [3]: 10 of 10

CC(C)C(NC=O)C(=O)O (configuration not stated)
survivor count (dose: 400.0 mg/kg/injection, vehicle: saline with Tween-80): 8 of 10

CCCCc1ccc2nc(NC(=O)OC)[nH]c2c1
T/C (dose: 50.0 mg/kg/injection, vehicle: saline with Tween-80): 129 % of control | survivor count [4]: 10 of 10 | survivor count [5]: 8 of 10

O=C1C(Cl)=C(Cl)C(=O)c2ccccc21
survivor count (dose: 20.0 mg/kg/injection, vehicle: saline with Tween-80): 10 of 10

Cc1ccc(S(=O)(=O)Nc2ccccc2-c2nc3c(Cl)ccc(Cl)c3c(=O)o2)cc1
survivor count (dose: 400.0 mg/kg/injection, vehicle: Klucel (hydroxypropylcellulose) (HPC)): 7 of 10

CCOC(C)C(/C=N/NC(N)=S)=NNC(N)=S (configuration not stated)
survivor count [4]: 10 of 10 | survivor count [5]: 9 of 10
